PubChem BioAssay AID1159578 – Peter MacCallum Cancer Centre, 2015
Assay: 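siRNA pools altering how lymphatic endothelial cells close a scratch wound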 (primary screen). System: human lymphatic endothelial cells. Knock-down reagent: siRNA pool against human genes, 40 nM. Duration: 48 h after transfection. Detection: 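High-content imaging of dye-stained cells in a scratch assay measures filled wound area and nuclei per well; duplicate means given as ratio to mock and robust z-score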. Direction: migration robust z-score: higher = faster migration into the scratch; nuclei per well: higher = more cells in the well. Rule for the call: 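Pools averaging fewer than 3300 nuclei are never called; remaining pools count as changed when migration robust z lies outside -2 to 2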. Calls: active = migration changed; inactive = no migration change, or too few cells.
In all, the deposit lists about 18,000 reagents; shown is a part drawn at random. About 1,030 of all reagents (5.7%) count as active. 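Inactive calls also include pools with fewer than 3300 nuclei, whose migration was not assessed.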 Raw values vary from plate to plate and are shown uncorrected. The numbers tell different reagents against one gene apart. Not all columns of the deposit are shown. No sequences are given here.

The opening 2 records, to show the layout:
| gene knocked down | pool no. | migration robust z-score | nuclei per well, duplicate mean | Outcome |
| --- | --- | --- | --- | --- |
| PARP6 (GeneID 56965) | 1 | -0.8 | 4102 | inactive |
| IRF5 (GeneID 3663) | 1 | -0.93 | 4410 | inactive |

The listing, repeating the preview:
| gene knocked down | pool no. | migration robust z-score | nuclei per well, duplicate mean | Outcome |
| --- | --- | --- | --- | --- |
| PARP6 (GeneID 56965) | 1 | -0.8 | 4102 | inactive |
| IRF5 (GeneID 3663) | 1 | -0.93 | 4410 | inactive |
| TSLIG3A (GeneID 25940) | 1 | 1.56 | 6024 | inactive |
| ETS1 (GeneID 2113) | 1 | -0.05 | 5462 | inactive |
| PLPP1 (GeneID 8611) | 1 | -2.12 | 7196 | active |
| NPL (GeneID 80896) | 1 | -0.83 | 5193 | inactive |
| CNOT3 (GeneID 4849) | 1 | 0.97 | 5928 | inactive |
| SYNCRIP (GeneID 10492) | 1 | -0.32 | 5406 | inactive |
| OR8S1 (GeneID 341568) | 1 | 0.52 | 6076 | inactive |
| PICALM (GeneID 8301) | 1 | 0.23 | 6210 | inactive |
| COMMD6 (GeneID 170622) | 1 | 0.04 | 5716 | inactive |
| ZMYM4 (GeneID 9202) | 1 | 1.75 | 6792 | inactive |
| SGF29 (GeneID 112869) | 1 | -0.33 | 5675 | inactive |
| H2AC20 (GeneID 8338) | 1 | 0.7 | 6278 | inactive |
| TIMP2 (GeneID 7077) | 1 | -0.13 | 5374 | inactive |
| FAM110A (GeneID 83541) | 1 | 0.48 | 5614 | inactive |
| GOT1L1 (GeneID 137362) | 1 | -0.94 | 5335 | inactive |
| LIMA1 (GeneID 51474) | 1 | 2.59 | 6289 | active |
| ZNRF4 (GeneID 148066) | 1 | 2.02 | 6012 | active |
| MCPH1 (GeneID 79648) | 1 | -1.71 | 5752 | inactive |
| NEXN (GeneID 91624) | 1 | 0.11 | 4286 | inactive |
| VCP (GeneID 7415) | 1 | -0.58 | 6022 | inactive |
| SPC25 (GeneID 57405) | 1 | -0.44 | 8709 | inactive |
| ADCY4 (GeneID 196883) | 1 | 0.13 | 5647 | inactive |
| TRNAU1AP (GeneID 54952) | 1 | 0.66 | 6841 | inactive |
| FFAR3 (GeneID 2865) | 1 | 0.42 | 3883 | inactive |
| MYBPC2 (GeneID 4606) | 1 | 0.03 | 6245 | inactive |
| TRHDE (GeneID 29953) | 1 | -0.31 | 5785 | inactive |
| POLD1 (GeneID 5424) | 1 | 0.5 | 5504 | inactive |
| ITPRIPL1 (GeneID 150771) | 1 | 0.41 | 6332 | inactive |
| AK9 (GeneID 221264) | 1 | -0.02 | 6702 | inactive |
| AK9 (GeneID 221264) | 2 | -0.62 | 5572 | inactive |
| AK9 (GeneID 221264) | 3 | 1.05 | 6380 | inactive |
| FAM47C (GeneID 442444) | 1 | 0.12 | 6209 | inactive |
| BAMBI (GeneID 25805) | 1 | -1.72 | 2411 | inactive |
| PABIR3 (GeneID 159091) | 1 | 1.1 | 5716 | inactive |
| AKR1D1 (GeneID 6718) | 1 | -0.05 | 5166 | inactive |
| EFTUD2 (GeneID 9343) | 1 | -1.69 | 4984 | inactive |
| ZNF555 (GeneID 148254) | 1 | 0.29 | 5306 | inactive |
| SYT11 (GeneID 23208) | 1 | 0.29 | 6125 | inactive |
| TAX1BP1 (GeneID 8887) | 1 | -0.78 | 5456 | inactive |
| ANKRD26 (GeneID 22852) | 1 | -0.02 | 6367 | inactive |
| IFT22 (GeneID 64792) | 1 | 1.96 | 6005 | inactive |
| NLGN1 (GeneID 22871) | 1 | 0.42 | 5408 | inactive |
| CORO2B (GeneID 10391) | 1 | -4.13 | 3732 | active |
| PCDH11Y (GeneID 83259) | 1 | 0.27 | 6048 | inactive |
| ABCC8 (GeneID 6833) | 1 | -1.55 | 4056 | inactive |
| FAM184A (GeneID 79632) | 1 | -0.64 | 5652 | inactive |
| CLTCL1 (GeneID 8218) | 1 | -0.36 | 6248 | inactive |
| RAP2A (GeneID 5911) | 1 | 0.2 | 5880 | inactive |
| ZNF485 (GeneID 220992) | 1 | 0.43 | 6990 | inactive |
| SUMO1 (GeneID 7341) | 1 | -0.83 | 6166 | inactive |
| CYP4F3 (GeneID 4051) | 1 | -0.47 | 5522 | inactive |
| MKRN1 (GeneID 23608) | 1 | -0.44 | 6412 | inactive |
| CC2D2B (GeneID 387707) | 1 | 0.01 | 5848 | inactive |
| STX11 (GeneID 8676) | 1 | -0.36 | 6278 | inactive |
| RRH (GeneID 10692) | 1 | 1.46 | 8516 | inactive |
